For at least one compound, name, drawing or mass did not settle the structure.
System: GBM TS cells (U87 and TS13-64 cells)
Assay: Collagen-based 3D invasion assay
Type: cell-based
Details: TMZ vs control, triple combination vs TMZ alone or gossypol+phenformin

Cn1nnc2c(C(N)=O)ncn2c1=O [TMZ, temozolomide]
Invaded area, occupied area at (72 h-0 h)/0 h, comparison in words: greatly decreased
